# Binding screen against folded nucleic acids

From ROBIN, a set of small-molecule microarray screens (doi:10.1002/anie.202211358).

Targets (5′ to 3′):
TPP: TPP riboswitch RNA three-way junction, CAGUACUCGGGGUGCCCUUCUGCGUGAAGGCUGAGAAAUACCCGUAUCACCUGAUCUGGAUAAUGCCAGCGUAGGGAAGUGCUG. About 24,000 compounds screened, about 160 hits.
PreQ1: PreQ1 riboswitch RNA pseudoknot, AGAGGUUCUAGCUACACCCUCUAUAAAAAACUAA. From B. subtilis. About 24,000 compounds screened, about 170 hits.
SAM-II: SAM-II riboswitch RNA pseudoknot, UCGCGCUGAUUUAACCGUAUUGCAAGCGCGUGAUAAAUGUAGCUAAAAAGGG. About 21,000 compounds screened, about 200 hits.

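Compounds were printed on reactive glass slides in duplicate spots, a dye-labelled oligonucleotide was laid over them, and the fluorescence left after washing was read. The data file lists only calls. An earlier report of the laboratory on the PreQ1, TPP and SAM-II riboswitches (doi:10.1038/s41467-019-09493-3) used 1 µM RNA for 2 h and required a mean Z-score above 3 (spot signal-to-noise against the whole library), a score well above that on a control array, and duplicate spots agreeing (coefficient of variation under 100); it then also set aside compounds that hit other targets, which this list keeps. The cut-offs behind this list may differ. These are primary screening calls, not affinities; a compound without a hit may have attached poorly or may still bind in solution.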 A compound is marked hit if it was called a hit and none if it was screened but was not. This is an unselected part of the compounds tested. A target missing from an entry has no call listed here. A dash means that no call is listed here.

| # | structure | TPP | PreQ1 | SAM-II |
|---|---|---|---|---|
| 1 | `Nc1nonc1C(=O)NCCNCc1ccccc1` | none | none | none |
| 2 | `OC1(CNCc2coc(-c3ccccc3)n2)CNCCOC1` (configuration not stated) | none | none | none |
| 3 | `Cc1ccc(S(=O)(=O)c2nnn(-c3ccc(C(C)C)cc3)c2N)cc1` | none | none | none |
| 4 | `CCCNCc1nc(-c2ccc(OC)c(OC)c2)no1` | none | none | none |
| 5 | `NCCn1cc(C(=O)N2CCCC2CCc2ccccc2)nn1` (configuration not stated) | none | none | none |
| 6 | `O=C1CC(Nc2ccc(O)cc2)C(=O)N1c1ccccc1` (configuration not stated) | none | none | none |
| 7 | `CCOc1ccccc1Nc1cc(C)nc2nc(-c3ccccc3)nn12` | none | none | - |
| 8 | `COc1ccc(-c2c(C)nn3c(NCCC4=CCCCC4)cc(C)nc23)cc1OC` | none | none | none |
| 9 | `CCNC(=O)Oc1ccc[nH]c1=O` | none | none | none |
| 10 | `Cc1nnc(Cc2ccc(NC(=O)CCc3cc4n(n3)CCNC4)cc2)[nH]1` | none | none | none |
| 11 | `O=C(OCC1CCC=CO1)C1CCC=CO1` (configuration not stated) | none | none | none |
| 12 | `CCCCOC(=O)C1=C(N)OC2=C(C(=O)CCC2)C12C(=O)N(C)c1ccccc12` (configuration not stated) | none | none | none |
| 13 | `COc1cc(Cn2cc(CCN)nn2)cc(OC)c1` | none | none | none |
| 14 | `Nc1nonc1-c1nc2ccccc2n1CC(=O)NCCC1=CCCCC1` | none | none | - |
| 15 | `CC1(C)Cc2c(sc3nc(SCc4ccccc4F)nc(N)c23)CO1` | none | none | none |
| 16 | `Cn1cncc1-c1cccc2c1OC(CN)C2` (configuration not stated) | none | none | none |
| 17 | `Cc1cc(C(C)(C)C)c(O)c(C)c1CC1=NCCN1` | none | none | none |
| 18 | `Cc1cccc(NC(=O)Cn2nnc(C(=O)Nc3cccc(F)c3)c2N)c1C` | none | none | none |
| 19 | `OC1CN(Cc2c[nH]nc2-c2ccc(F)cc2)Cc2ccccc21` (configuration not stated) | none | none | none |
| 20 | `Cc1cccc(-n2nc(Cc3ccccc3)n(CC(=O)N[C@@H](C)CO)c2=O)c1` | none | none | none |
| 21 | `Cc1ccc(CNCc2ccc(OCC(O)c3ccc4c(c3)n(C)c(=O)n4C)cc2)cc1` (configuration not stated) | none | none | - |
| 22 | `Cc1nn2cc(CCNc3nccc(N4CCCC(O)C4)n3)nc2s1` (configuration not stated) | none | none | none |
| 23 | `COc1coc(C(=O)N2C[C@@H](CN3C[C@@H](C)O[C@@H](C)C3)[C@@H](CO)C2)cc1=O` | none | none | none |
| 24 | `COC(=O)CNc1cc(C)nc2nc(-c3ccc(C(C)(C)C)cc3)nn12` | none | none | - |
| 25 | `CCCc1nc(C(=O)N(C)[C@@H]2CS(=O)(=O)C[C@H]2O)cs1` | none | none | none |
| 26 | `CNc1c(NS(=O)(=O)c2ccc(F)c(C)c2)c(=O)oc2ccccc12` | none | none | none |
| 27 | `CNCC(=O)N1C[C@@H](C(=O)O)[C@H](c2ccccc2)C1` | none | none | none |
| 28 | `CCCS(=O)(=O)N1CCN(c2cc(Nc3ccc(C)cc3)nc(C)n2)CC1` | none | none | - |
| 29 | `Cc1c(Cl)cc(C(=O)NCC(CO)Cc2ccco2)cc1Cl` (configuration not stated) | none | none | hit |
| 30 | `Cc1nc2sc(C#N)c(N)c2c(C)c1C` | none | none | none |
| 31 | `CS(=O)(=O)CCC(=O)N1C[C@H](C2CC2)[C@@H](N)C1` | none | none | none |
| 32 | `Cc1ccc(NC(=O)Cn2c(-c3nonc3N)nc3ccccc32)c(Br)c1` | none | none | - |
| 33 | `CN(Cc1cc(-c2ccncc2)no1)Cc1ccc(CO)o1` | none | none | none |
| 34 | `COc1nccc(N2CCN(Cc3ccccc3)C(CCO)C2)c1C#N` (configuration not stated) | none | none | none |
| 35 | `CCc1n[nH]c2c1C(c1ccc(F)cc1)C(C#N)=C(N)O2` (configuration not stated) | none | none | none |
| 36 | `Cc1nnsc1CN(C)Cc1c(CO)cnc(C)c1O` | none | none | none |
| 37 | `COc1ncc(CN2CCC(C(O)c3cccs3)CC2)cn1` (configuration not stated) | none | none | none |
| 38 | `C=CC(=O)Nc1cc(NC(=O)c2ccc(C)c(NC(=O)c3ccno3)c2)cc(C(F)(F)F)c1` | none | none | none |
| 39 | `CCCCCN=C(N)NNC=C1C=Nc2ccc(OC)cc21` | none | none | none |

For reference, 5 entries once more:

{"structure": "Cc1nnc(Cc2ccc(NC(=O)CCc3cc4n(n3)CCNC4)cc2)[nH]1", "TPP": "none", "PreQ1": "none", "SAM-II": "none"}
{"structure": "CCCCOC(=O)C1=C(N)OC2=C(C(=O)CCC2)C12C(=O)N(C)c1ccccc12", "stereo": "configuration not stated", "TPP": "none", "PreQ1": "none", "SAM-II": "none"}
{"structure": "COc1ccc(-c2c(C)nn3c(NCCC4=CCCCC4)cc(C)nc23)cc1OC", "TPP": "none", "PreQ1": "none", "SAM-II": "none"}
{"structure": "CNc1c(NS(=O)(=O)c2ccc(F)c(C)c2)c(=O)oc2ccccc12", "TPP": "none", "PreQ1": "none", "SAM-II": "none"}
{"structure": "COc1nccc(N2CCN(Cc3ccccc3)C(CCO)C2)c1C#N", "stereo": "configuration not stated", "TPP": "none", "PreQ1": "none", "SAM-II": "none"}